Consider 4 molecules from PMC7156110, “The MAPK substrate MASS proteins regulate stomatal development in Arabidopsis” (PLoS Genetics, 2020).

These are yes or no findings as the source states them, for the method shown. For some of these results: In cells and extracts the contact can be indirect. Some entries that bind do so weakly or less than the wild type. For some of these results: Where a sequence is shown, tags or fusion partners need not be part of it.

Test [1] has as its target T1, YDA^KI (kinase-inactive YDA, K429R), split-YFP fusion for BiFC (Arabidopsis thaliana) (UniProt Q9CAD5).
T1 sequence: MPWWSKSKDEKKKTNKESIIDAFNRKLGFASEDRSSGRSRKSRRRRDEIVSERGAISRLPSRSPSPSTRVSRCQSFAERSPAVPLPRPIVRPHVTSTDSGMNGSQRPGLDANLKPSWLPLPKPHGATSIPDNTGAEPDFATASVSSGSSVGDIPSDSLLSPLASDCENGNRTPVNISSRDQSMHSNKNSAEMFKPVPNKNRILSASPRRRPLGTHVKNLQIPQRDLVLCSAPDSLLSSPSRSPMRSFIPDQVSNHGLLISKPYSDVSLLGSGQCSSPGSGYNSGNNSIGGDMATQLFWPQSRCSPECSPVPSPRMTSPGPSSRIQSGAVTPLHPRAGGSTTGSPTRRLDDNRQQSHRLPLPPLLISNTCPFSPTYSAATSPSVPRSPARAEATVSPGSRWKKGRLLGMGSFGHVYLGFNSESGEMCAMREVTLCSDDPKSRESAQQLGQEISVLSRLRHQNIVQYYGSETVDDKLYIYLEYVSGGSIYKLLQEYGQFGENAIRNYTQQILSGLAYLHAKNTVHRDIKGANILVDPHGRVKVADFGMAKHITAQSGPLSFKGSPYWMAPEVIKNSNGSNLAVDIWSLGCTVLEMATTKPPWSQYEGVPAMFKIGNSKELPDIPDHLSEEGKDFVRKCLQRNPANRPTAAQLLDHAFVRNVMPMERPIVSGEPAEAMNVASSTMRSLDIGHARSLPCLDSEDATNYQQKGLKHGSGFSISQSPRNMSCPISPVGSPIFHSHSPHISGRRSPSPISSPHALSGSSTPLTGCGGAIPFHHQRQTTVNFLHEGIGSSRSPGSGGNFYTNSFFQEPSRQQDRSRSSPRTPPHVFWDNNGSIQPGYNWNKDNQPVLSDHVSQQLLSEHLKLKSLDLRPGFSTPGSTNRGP
The test can be described thus: split reporter; BiFC with split YFP in tobacco leaf epidermal cells; signal at the plasma membrane.

Test [2] concerns the target T2, YDA^KI-YFP (kinase-inactive YDA, K429R) (Arabidopsis thaliana) (UniProt Q9CAD5).
T2 sequence: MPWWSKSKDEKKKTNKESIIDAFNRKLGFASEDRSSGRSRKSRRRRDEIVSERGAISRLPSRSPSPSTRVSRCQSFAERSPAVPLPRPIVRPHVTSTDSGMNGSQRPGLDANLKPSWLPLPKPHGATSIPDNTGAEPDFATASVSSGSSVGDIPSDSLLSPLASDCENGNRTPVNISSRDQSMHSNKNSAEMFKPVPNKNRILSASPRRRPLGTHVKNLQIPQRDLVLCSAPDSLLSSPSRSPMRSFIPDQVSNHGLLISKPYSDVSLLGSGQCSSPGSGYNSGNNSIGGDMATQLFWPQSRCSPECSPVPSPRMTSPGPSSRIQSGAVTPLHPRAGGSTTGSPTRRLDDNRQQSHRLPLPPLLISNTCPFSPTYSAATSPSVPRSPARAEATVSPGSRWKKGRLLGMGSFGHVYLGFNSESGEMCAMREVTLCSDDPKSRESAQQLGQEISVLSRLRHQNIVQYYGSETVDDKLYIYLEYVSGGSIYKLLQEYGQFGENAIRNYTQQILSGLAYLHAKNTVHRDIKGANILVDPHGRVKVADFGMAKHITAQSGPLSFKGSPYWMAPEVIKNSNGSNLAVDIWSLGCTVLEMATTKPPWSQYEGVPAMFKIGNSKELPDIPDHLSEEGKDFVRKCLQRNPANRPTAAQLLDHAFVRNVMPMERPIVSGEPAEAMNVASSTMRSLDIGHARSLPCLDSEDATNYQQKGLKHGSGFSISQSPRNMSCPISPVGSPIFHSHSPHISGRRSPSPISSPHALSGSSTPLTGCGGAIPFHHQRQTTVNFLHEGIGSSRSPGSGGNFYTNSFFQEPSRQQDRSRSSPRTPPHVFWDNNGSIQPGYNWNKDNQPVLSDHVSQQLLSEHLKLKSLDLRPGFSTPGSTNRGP
The test is described as follows: co-IP; 35S::4xMyc-MASS2g and 35S::YDA^KI-YFP co-infiltrated into N. benthamiana leaves; GFP-Trap Agarose, 3 hr at 4°C; blots with anti-Myc and anti-GFP.

In test [3] the target is T3, MASS2 recombinant protein of the BLI assay (Arabidopsis thaliana) (UniProt Q9XI29).
T3 sequence: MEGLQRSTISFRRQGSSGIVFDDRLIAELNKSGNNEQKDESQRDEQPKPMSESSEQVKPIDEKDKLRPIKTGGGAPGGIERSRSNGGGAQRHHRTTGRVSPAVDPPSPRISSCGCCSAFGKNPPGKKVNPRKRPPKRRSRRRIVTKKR
The test can be described thus: BLI; BLItz system; recombinant protein loaded onto Ni-NTA biosensors, dipped in buffer with purified YDA protein; 50 mM Tris pH 8.0, 150 mM NaCl; room temperature; both purified. For orientation: In BLI a coated tip is dipped into the sample, and binding shifts an interference pattern.

B1: MASS2, split-YFP fusion for BiFC (protein, UniProt Q9XI29 1-148)
chain: MEGLQRSTISFRRQGSSGIVFDDRLIAELNKSGNNEQKDESQRDEQPKPMSESSEQVKPIDEKDKLRPIKTGGGAPGGIERSRSNGGGAQRHHRTTGRVSPAVDPPSPRISSCGCCSAFGKNPPGKKVNPRKRPPKRRSRRRIVTKKR
Turning to B1, the binding entry in test [1] is on record as “binds”.

B2: 4xMyc-MASS2g (MASS2 expressed from its genomic region) (protein, UniProt Q9XI29 1-148)
chain: MEGLQRSTISFRRQGSSGIVFDDRLIAELNKSGNNEQKDESQRDEQPKPMSESSEQVKPIDEKDKLRPIKTGGGAPGGIERSRSNGGGAQRHHRTTGRVSPAVDPPSPRISSCGCCSAFGKNPPGKKVNPRKRPPKRRSRRRIVTKKR
B2: the binding result in test [2] is reported as “binds”.

B3: YDA, purified protein of the BLI assay (enzyme, UniProt Q9CAD5 1-883)
chain: MPWWSKSKDEKKKTNKESIIDAFNRKLGFASEDRSSGRSRKSRRRRDEIVSERGAISRLPSRSPSPSTRVSRCQSFAERSPAVPLPRPIVRPHVTSTDSGMNGSQRPGLDANLKPSWLPLPKPHGATSIPDNTGAEPDFATASVSSGSSVGDIPSDSLLSPLASDCENGNRTPVNISSRDQSMHSNKNSAEMFKPVPNKNRILSASPRRRPLGTHVKNLQIPQRDLVLCSAPDSLLSSPSRSPMRSFIPDQVSNHGLLISKPYSDVSLLGSGQCSSPGSGYNSGNNSIGGDMATQLFWPQSRCSPECSPVPSPRMTSPGPSSRIQSGAVTPLHPRAGGSTTGSPTRRLDDNRQQSHRLPLPPLLISNTCPFSPTYSAATSPSVPRSPARAEATVSPGSRWKKGRLLGMGSFGHVYLGFNSESGEMCAMKEVTLCSDDPKSRESAQQLGQEISVLSRLRHQNIVQYYGSETVDDKLYIYLEYVSGGSIYKLLQEYGQFGENAIRNYTQQILSGLAYLHAKNTVHRDIKGANILVDPHGRVKVADFGMAKHITAQSGPLSFKGSPYWMAPEVIKNSNGSNLAVDIWSLGCTVLEMATTKPPWSQYEGVPAMFKIGNSKELPDIPDHLSEEGKDFVRKCLQRNPANRPTAAQLLDHAFVRNVMPMERPIVSGEPAEAMNVASSTMRSLDIGHARSLPCLDSEDATNYQQKGLKHGSGFSISQSPRNMSCPISPVGSPIFHSHSPHISGRRSPSPISSPHALSGSSTPLTGCGGAIPFHHQRQTTVNFLHEGIGSSRSPGSGGNFYTNSFFQEPSRQQDRSRSSPRTPPHVFWDNNGSIQPGYNWNKDNQPVLSDHVSQQLLSEHLKLKSLDLRPGFSTPGSTNRGP
As for B3, the binding result in test [3] is on record as “binds”.

B4: MASS1, split-YFP fusion for BiFC (protein, UniProt Q9SSC1 1-138)
chain: MAGLQRSTISFRRQGSSGIVWDDRLIAELSQQAANDRKGETLQQDEQAKLITSEVQDQTTKPIAGEGLKPIRTDGGMERSRSNGGGAIRHHRNTGRVSPAVDPPSPRLSAFGCCSAFGKKQPGKKVNQRKRPAKRRSR
For B4, the binding result in test [1] is reported as “binds”.
